This assay concerns the target SEL1L (suppressor of lin-12-like), endogenous, mouse (mouse (endogenous in primary macrophages and RAW 264.7)) (UniProt Q9Z2G6). Nature of the assay: co-IP; immunoprecipitation of endogenous SEL1L (antibody and Protein A agarose) from lysates of mouse primary macrophages in the basal state; lysis buffer 150 mM NaCl, 1 mM EDTA, 50 mM Tris-HCl pH 7.5, 1% Triton X-100 or NP-40; 16 h at 4 °C; immunoblot; IgG control. For orientation: A western blot detects proteins with antibodies after separation by electrophoresis.

Sequences of proteins named here, by UniProt entry; tags and fusion partners are left off. A change or cut given only in a name is not applied to a line headed by its entry. Residues count along the entry.
UniProt Q9Z2G6, residues 22-790: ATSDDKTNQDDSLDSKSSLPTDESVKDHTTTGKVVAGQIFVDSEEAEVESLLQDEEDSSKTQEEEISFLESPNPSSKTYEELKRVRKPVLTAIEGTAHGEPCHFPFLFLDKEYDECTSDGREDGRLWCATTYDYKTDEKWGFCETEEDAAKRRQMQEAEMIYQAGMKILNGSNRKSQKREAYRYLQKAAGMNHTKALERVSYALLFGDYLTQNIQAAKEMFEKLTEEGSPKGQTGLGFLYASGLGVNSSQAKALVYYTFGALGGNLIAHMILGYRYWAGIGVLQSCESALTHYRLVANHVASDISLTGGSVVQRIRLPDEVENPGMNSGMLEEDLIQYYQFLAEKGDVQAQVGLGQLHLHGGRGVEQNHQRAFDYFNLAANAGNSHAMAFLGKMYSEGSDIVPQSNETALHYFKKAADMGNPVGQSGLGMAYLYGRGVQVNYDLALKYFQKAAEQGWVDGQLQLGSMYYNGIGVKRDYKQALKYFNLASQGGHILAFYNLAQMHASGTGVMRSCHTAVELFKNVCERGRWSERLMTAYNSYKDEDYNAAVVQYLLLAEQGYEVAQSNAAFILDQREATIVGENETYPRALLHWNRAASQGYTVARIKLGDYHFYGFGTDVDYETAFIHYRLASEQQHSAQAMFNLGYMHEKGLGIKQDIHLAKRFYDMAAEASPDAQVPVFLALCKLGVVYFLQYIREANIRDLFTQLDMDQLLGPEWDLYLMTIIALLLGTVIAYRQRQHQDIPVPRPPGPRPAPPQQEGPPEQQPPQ

No constants are given. Whether binding was seen depends on the method and setting. Binding seen in cells or lysates may run through a third protein. Some binding calls cover weakened binding; strength is not graded here.

B1: CALNEXIN, endogenous, mouse (protein, UniProt P35564 21-591)
chain: HDGHDDDAIDIEDDLDDVIEEVEDSKSKSDASTPPSPKVTYKAPVPTGEVYFADSFDRGSLSGWILSKAKKDDTDDEIAKYDGKWEVDEMKETKLPGDKGLVLMSRAKHHAISAKLNKPFLFDTKPLIVQYEVNFQNGIECGGAYVKLLSKTAELSLDQFHDKTPYTIMFGPDKCGEDYKLHFIFRHKNPKTGVYEEKHAKRPDADLKTYFTDKKTHLYTLILNPDNSFEILVDQSVVNSGNLLNDMTPPVNPSREIEDPEDRKPEDWDERPKIADPDAVKPDDWDEDAPSKIPDEEATKPEGWLDDEPEYIPDPDAEKPEDWDEDMDGEWEAPQIANPKCESAPGCGVWQRPMIDNPNYKGKWKPPMIDNPNYQGIWKPRKIPNPDFFEDLEPFKMTPFSAIGLELWSMTSDIFFDNFIISGDRRVVDDWANDGWGLKKAADGAAEPGVVLQMLEAAEERPWLWVVYILTVALPVFLVILFCCSGKKQSNAMEYKKTDAPQPDVKDEEGKEEEKNKRDEEEEEEKLEEKQKSDAEEDGVTGSQDEEDSKPKAEEDEILNRSPRNRKPRRE
For B1, the binding entry is recorded as “binds”.
